Data taken from PubChem BioAssay AID504444 (National Center for Advancing Translational Sciences (NCATS), 2011).
In all, about 360,000 compounds went through this assay and about 7,500 (2.1%) were called active. The shares of active, inactive and inconclusive entries below differ from those in the screen. Calls follow the shape of the dose curve; as a rule, active = well fitted inhibition curve with a large enough effect; inconclusive = small, poorly fitted or top-dose-only effect, or effect the other way; inactive = flat fitted curve, though single readings scatter. Where the call is inconclusive, the potency comes from a doubtful curve fit.

assay: Nrf2 qHTS screen for inhibitors; conditions: A549 ARE-Fluc reporter, luciferase luminescence, 18-24 h; activity change, negative = inhibition: at 46 µM (top of the series); also: nearly all actives have a fitted effect of over 60% in size
Outline: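 Nrf2 function is reported as luminescence of an ARE-controlled luciferase in A549 cells. Compounds were tested at several concentrations, and a CellTiter-Fluor read on the same wells flagged cytotoxicity.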
% is scaled to controls: 0 for no effect and ±100 for the full control effect; potency is read from the fitted curve at half-maximal effect.

| Compound | Potency | activity change, negative = inhibition |
| --- | --- | --- |
| CCc1cccc(CC)c1NC(=O)COc1ccccc1C(=O)c1cc(C#N)c(=O)n(C2CCCCC2)c1 | inconclusive: 20.6 µM [falling, single point] |  |
| O=C(NNC(=S)NC(=O)c1sc2ccccc2c1Cl)c1ccc(Cl)cc1 | inconclusive: 29.1 µM [falling, single point] |  |
| O=C(O)c1cc(Cl)c2ccccc2c1O |  | inactive: 7.04% |
| CC(C)N(C(=O)[C@H]1C[C@H](CC(=O)NCc2cccc(C(F)(F)F)c2)C(=O)N2CCc3c([nH]c4ccc(Cl)cc34)[C@]12C)C(C)C | inconclusive: 29.1 µM [falling, single point] |  |
| OCCNc1nc(Nc2ccc(Cl)cc2)nc(N2CCCC2)n1 | inconclusive: 18.4 µM [falling, partial curve] |  |
| Cc1ccc(Cl)cc1N1CCN(C(=O)c2ccc(C)c(-n3c(C)nc4cccnc43)c2)CC1 | inconclusive: 29.1 µM [falling, single point] |  |
| COc1cc(NC(=O)c2cc(-n3cnnc3)ccc2Cl)cc(OC)c1 | inconclusive: 9.2 µM [activator, partial curve] |  |
| CCc1nc2ccc(C(=O)N3CCN(c4ccc(Cl)cc4)CC3)cc2nc1CC | inconclusive: 16.4 µM [falling, partial curve] |  |
| O=C(CSc1c2c(nc3cc(Cl)ccc13)CCCC2)NCc1ccco1 |  | inactive: 16.2% |
| COc1ccc2c(C)c(CCC(=O)NCCc3ccc(Cl)cc3)c(=O)oc2c1 | inconclusive: 20.6 µM [falling, partial curve, poor fit] |  |
| Nc1ccccc1SC1CC(=O)N(c2ccc(Cl)c(Cl)c2)C1=O (stereo not drawn) |  | inactive: -26.5% |
| CSc1ccc(-c2cccc([N+](=O)[O-])c2)nn1 | inconclusive: 2.91 µM [falling, partial curve, poor fit] |  |
| COc1ccc(NC(=S)N(CCc2c(C)[nH]c3ccccc23)Cc2cccnc2)cc1 |  | inactive: 5.82% |
| COc1ccc(CCNC(=O)c2ccc([N+](=O)[O-])cc2)cc1 | inconclusive: 0.92 µM [activator, full curve] |  |
| COc1ccccc1CNc1ncc(-c2ccc(F)cc2)n1C |  | inactive: -5.17% |
| Cc1ccc(NC(=O)C(=O)NCCCN2CCCC2=O)c(C)c1 | inconclusive: 16.4 µM [activator, partial curve] |  |
| CCC1CCCCN1C(=S)Nc1cccc(S(=O)(=O)N(C)C)c1 (stereo not drawn) | inconclusive: 7.31 µM [falling, partial curve, poor fit] |  |
| CC(C)(C)C(=O)Nc1ccc(-c2cnco2)cc1 | inconclusive: 29.1 µM [activator, single point] |  |
| Cc1ccc(C(=O)Nc2ccccc2C(=O)NC(Cc2ccccc2)C(=O)O)cc1 (stereo not drawn) | inconclusive: 29.1 µM [activator, single point] |  |
| CN(Cc1ccc(C(F)(F)F)cc1)C(=O)c1ccc(Oc2ccccc2)cc1 | inconclusive: 16.4 µM [falling, single point] |  |
| Cc1ccc(NC(=O)C(=O)NCC2CCCO2)cc1C (stereo not drawn) | inconclusive: 18.4 µM [activator, partial curve] |  |
| Nc1ccc(-c2nnn(CC(=O)N3CCCCC3)n2)cc1 | inconclusive: 23.1 µM [falling, single point] |  |

Shown as tab-separated lines: 3 of the compounds above
Compound	Potency	activity change, negative = inhibition
O=C(CSc1c2c(nc3cc(Cl)ccc13)CCCC2)NCc1ccco1		inactive: 16.2%
COc1ccc2c(C)c(CCC(=O)NCCc3ccc(Cl)cc3)c(=O)oc2c1	inconclusive: 20.6 µM [falling, partial curve, poor fit]	
Nc1ccccc1SC1CC(=O)N(c2ccc(Cl)c(Cl)c2)C1=O (stereo not drawn)		inactive: -26.5%

Later entries:

| Compound | Potency | activity change, negative = inhibition |
| --- | --- | --- |
| FC(F)Oc1ccc(-c2csc(Cc3nnc4n3CCCCC4)n2)cc1 | inconclusive: 20.6 µM [falling, single point] |  |
| CCN(CC)CCn1c(SCC(=O)Nc2cccc(OC)c2)nc2c(sc3ccccc32)c1=O | inconclusive: 23.1 µM [falling, partial curve] |  |
| COc1cccc(NC(=O)/C(C#N)=C\c2cn(Cc3ccc(Cl)cc3)c3ccccc23)c1 | inconclusive: 18.4 µM [falling, partial curve] |  |
| CCCSc1nc(N2CCOCC2)c2c(c1C#N)CCCC2 |  | inactive: -16.4% |
| COC(=O)Cc1ccc2c3ccccc3n(C)c2c1 | inconclusive: 29.1 µM [activator, single point] |  |
| COC(=O)C1=C(C)N(Cc2ccccc2)C(=NCC2CC2)N[C@H]1c1ccccc1 |  | inactive: -1.16% |
| C=CCn1c(=O)c2c(nc3n2CCS3)n(C)c1=O | inconclusive: 0.146 µM [falling, partial curve, poor fit] |  |
| Cc1cccc([C@H]2[C@@H]3C=CCC[C@@H]3C(=O)N2Cc2ccccc2)c1 |  | inactive: 3.47% |
| CCCCNc1cc(C(=O)O)cc(S(N)(=O)=O)c1Oc1ccccc1 | active: 5.8 µM |  |
| O=C(NCCOC(=O)c1c(F)cccc1Cl)c1c(F)cccc1Cl |  | inactive: -7.41% |
| O=C(NCCCc1ccccc1)c1ccc(CS(=O)Cc2ccc(Cl)cc2)o1 (stereo not drawn) | inconclusive: 0.92 µM [falling, partial curve, poor fit] |  |
| CCCc1cc(C(=O)Nc2ccc(CC)cc2)no1 | inconclusive: 2.31 µM [activator, full curve] |  |
| CCN(CCCNC(=O)c1cc2cc3ccc(OC)cc3nc2s1)c1ccccc1 | inconclusive: 29.1 µM [falling, single point] |  |
| CCOc1ccc([C@@H]2CC=C(C(=O)O)[C@H](c3ccc(Cl)cc3)N2S(=O)(=O)c2ccc(C)cc2)cc1 | inconclusive: 18.4 µM [falling, partial curve, poor fit] |  |
| Cc1ccc(C)c(C(=O)Nc2cc(C)nn2-c2nc(C)cc(C)n2)c1 | inconclusive: 1.84 µM [falling, partial curve, poor fit] |  |
| N/C(=N\OC(=O)c1cccs1)c1cccnc1 | inconclusive: 20.6 µM [activator, single point] |  |
| COc1ccc(CN(Cc2ccccc2)C(=O)c2ccccc2)cc1COc1ccc(NC(C)=O)cc1 | active: 23.1 µM |  |
| COc1ccccc1NC(=S)N1CCN(C(c2ccccc2)c2ccccc2)CC1 | inconclusive: 2.31 µM [falling, partial curve, poor fit] |  |
| CCOc1cc(CNCc2ccccc2)ccc1OCc1ccc(Cl)cc1 | inconclusive: 29.1 µM [activator, single point] |  |
| COc1ccc(Cc2nc3c4c(ncn3n2)Oc2ccc3ccccc3c2C4c2ccc(OC)c(OC)c2)cc1 (stereo not drawn) |  | inactive: -7.16% |
| Cc1cc(NCCc2ccccc2F)n2ncnc2n1 | inconclusive: 29.1 µM [falling, single point] |  |
